In patent publication US12234288B2 (IO Biotech ApS, priority 2018, dated 2025):

Assay: peptide made by a vendor
Conditions: whole synthesis

## GFSWIKPCISSASIVYIGLR
  outcome: Arg2-E17 could not be synthesised by routine methods

End groups of sequences in plain letters are not given here.
